# Measurements from PMC10187093, “Synthesis, in silico modelling, and in vitro biological evaluation of substituted pyrazole derivatives as potential anti-skin cancer, anti-tyrosinase, and antioxidant agents” (Journal of Enzyme Inhibition and Medicinal Chemistry, 2023).
# System: SCC-12
# Assay: MTT antiproliferative/cytotoxicity assay, SCC-12
# Format: cell-based, human
# Details: IC50 HaCaT divided by IC50 SCC-12
# Method: Human-derived GFP-expressing melanoma A375 and epidermoid carcinoma A431 cell lines were purchased from Angio-Proteomie (Boston, MA). Human melanoma carcinoma SK-MEL-28 and human immortalised keratinocytes (HaCaT) cell lines were acquired from American Type Culture Collection (ATCC; Manassas, VA). […] The growth media of incubated cells were changed every 2–3 days until they attained 70–80% confluence, after which they were sub-cultured for experiments and re-passaging. DMSO was used as the vehicle to prepare a 10 mM stock solution of the test compounds.
# Stock solutions (10 mM) were prepared by dissolving each compound to be screened in DMSO.
smiles,measurement,setting,value
"N.N.[Cl][Pt][Cl] [Cisplatin, cisplatin, reference compound]",selectivity index (SI) SCC-12,,0.8
same,selectivity index (SI) SCC-12,listed as cisplatin,0.4
